Results are given in words; binding and its absence hold for the method and conditions named. In cells and extracts the contact can be indirect.
Biological target: T1, BAD (human (endogenous in B-ALL cells)) (UniProt Q92934)
T1 sequence: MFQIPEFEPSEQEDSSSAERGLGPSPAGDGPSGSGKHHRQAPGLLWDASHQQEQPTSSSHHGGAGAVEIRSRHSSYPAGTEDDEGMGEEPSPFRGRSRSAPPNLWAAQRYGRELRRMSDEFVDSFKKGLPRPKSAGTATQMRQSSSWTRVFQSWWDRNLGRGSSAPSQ
Experiment: co-IP; endogenous BAD precipitated with anti-BAD (C-7) from CHAPS lysates of B-ALL cells at 4 °C, protein G-agarose, blots for BCL-2, BCL-XL, MCL-1; cells with or without trametinib

By UniProt entry, the sequences of proteins in these tests, tags left out.
UniProt Q07820: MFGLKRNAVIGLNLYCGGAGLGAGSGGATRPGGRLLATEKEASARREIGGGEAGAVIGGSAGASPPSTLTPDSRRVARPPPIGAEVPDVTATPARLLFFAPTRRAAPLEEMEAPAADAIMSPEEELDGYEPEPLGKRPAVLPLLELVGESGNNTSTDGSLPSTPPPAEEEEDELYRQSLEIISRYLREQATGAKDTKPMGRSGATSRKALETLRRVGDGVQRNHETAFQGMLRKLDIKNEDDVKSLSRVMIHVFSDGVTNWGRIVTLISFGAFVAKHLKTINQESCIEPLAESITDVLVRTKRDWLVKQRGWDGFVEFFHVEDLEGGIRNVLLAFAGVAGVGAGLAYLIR

In the case of MCL-1 (from UniProt Q07820 1-350), the binding is reported as “no binding”.

Source: article PMC4855656
